Source: article PMC5404532, “Simplified Reversed Chloroquines To Overcome Malaria Resistance to Quinoline-Based Drugs” (Antimicrobial Agents and Chemotherapy, 2017)

Test system: mouse spleen lymphocytes
Assay: Cytotoxicity against mouse spleen lymphocytes
Type: cell-based
Conditions: unitless; cytotoxicity/efficacy against D6

Row | Compound | T.I. (therapeutic index)
1 | Clc1ccc2c(NCCCN3CCN(c4ccccc4)CC3)ccnc2c1 [Compound 9, 7-Chloro-N-(3-(4-phenylpiperazin-1-yl)propyl)quinolin-4-amine] | 16,000
2 | Clc1ccc2c(NCCCN3CCN(c4ccccn4)CC3)ccnc2c1 [Compound 21, 7-Chloro-N-(3-(4-(pyridin-2-yl)piperazin-1-yl)propyl)quinolin-4-amine] | 19,000
